Data reported in patent US11357770B2, “Method of treating immunoglobulin light chain amyloidosis” (ALTERITY THERAPEUTICS LIMITED, priority 2016, dated 2022).
At least one structure is not confirmed: it was looked up by name or label, or the drawing left a doubt.

How the values were obtained:
C. elegans [1] = assay: C. elegans pharyngeal pumping rate (LC-induced pharyngeal dysfunction)
Method: Worms were fed for 2 h with 100 μg/mL H7-BJ in the absence or presence of 0-25 nM 1033. Control worms received vehicle alone (dotted line). Each value is the mean±SE, n=30. […] (B) Images obtained from the overlay of a contrast phase and MitoSOX fluorescence (arrows). Scale bar 50 μm. (C) The effects of cardiotoxic LC, 1033, cardotoxic LC+1033, H2O2 and H2O2+1033 on pharyngeal function. (D) The effects of Chelex® and EDTA on LC induced pharyngeal dysfunction.
MM2-BJ (Myeloma) and H7-BJ (Cardiotoxic LC) and in 5 mM PBS, pH 7.4, were administered to worms (100 worms/100 μL) at 100 μg/mL alone or with 50 μM TETRA or 5 mM NAC. Control worms received vehicle alone (Vehicle). After incubation for 2 h in the absence of OP50 E. coli, worms were plated on NGM plates seeded with bacteria.
Bristol N2 strain, transgenic CL2070 dvIs70 Is[hsp-16.2::gfp; rol-6(su1006)], CF1553 muls84 [(pAD76) sod-3p::GFP+rol-6] and TJ356, zls356Is[daf-16::daf-16-gfp; rol-6] were obtained from the Caenorhabditis elegans Genetic Center (CGC, University of Minnesota, USA) and propagated at 20° C. on solid Nematode Growth Medium (NGM) seeded with E. coli OP50 (from CGC) for food. The effect of LC on pharyngeal behaviour was investigated (Diomede et al. 2014). […] The pharyngeal pumping rate, measured by counting the number of times the terminal bulb of the pharynx contracted over a 1-minute interval, was scored 20 h later. […]

C. elegans [2] = assay: Pharyngeal function, drugs administered after damage by cardiotoxic LC; assay type: in vivo, Caenorhabditis elegans; details: H7-BJ 1.5 h
Method: Pharyngeal performance of worms fed 100 μg/mL H7-BJ (Cardiotoxic LC) for 1.5 h and then treated for 30 min with 20 µM tetracycline (TETRA), 0.5-2 nM 1033 alone or together with 20 μM TETRA. Control worms fed vehicle alone. **p<0.001, *p<0.005 vs. vehicle, ººp<0.001 vs. Cardiotoxic LC, one-way ANOVA and Bonferroni's post hoc test. §§ p<0.01 significant interaction vs. worms fed Cardiotoxic LC+ 0.5 nM 1033, two-ways ANOVA and Bonferroni's post hoc test.
To reflect circumstances most likely encountered in the clinic drugs were administered to worms when the pharynx was already damaged by cardiotoxic LC. […] Then drugs were administered for 30 min and the pumping rate was scored.
Feeding experiments in which nematodes were fed H7-BJ for 1.5 h to generate pharangeal dysfunction, subsequently 20 μM TETRA, 0.5 nM 1033, 2 nM 1033, 20 μM TETRA and 0.5 nM 1033.

DAF-16 = assay: DAF-16::GFP nuclear translocation in TJ356 nematodes; assay type: in vivo, Caenorhabditis elegans; details: 100 μg/mL H7-BJ 2 h with 2 nM 1033, 50 μM TETRA or 5 mM NAC
Method: (A) Image of DAF-16::GFP expression in control vehicle-fed and (B) cardiotoxic LC-fed worms (100 μg/mL H7-BJ for 2 h). (C-D) The subcellular distribution of DAF-16 expression in worms fed 2 h: vehicle, 100 μg/mL H7-BJ with or without 2 nM 1033, 50 μM tetracycline (TETRA) or 5 mM N-acetyl-cysteine (NAC). According to DAF-16 localization worms were divided into two phenotypes including “cytosolic” and “nuclear”. The percentage of DAF-16 localization in respect to vehicle fed worms was calculated based on 3 experiments, N=100. Mean±SE. **p<0.01 vs. vehicle, ºp<0.05 and ººp<0.01 vs. cardiotoxic LC, one-way ANOVA and Bonferroni's post hoc test. (E/F) Transgenic worms were fed with 1 mM H2O2 for 30 minutes as a positive control. DAF-16::GFP distribution (E) and HSP-16.2 and SOD-3 expression visualized by GFP-fluorescence (F).
DAF-16::green fluorescent protein (GFP) nuclear translocation was evaluated in TJ356 nematodes. Pharyngeal expression of HSP-16.2::GFP and SOD-3::GFP was determined in CL2070 and CF1553 worms, respectively. […] Organisms were scored as positive for nuclear localization when green foci were observed throughout the entire body from head to tail and as cytosolic when DAF-16::GFP was diffuse. The number of worms with each level of translocation were counted (at least 100 worms/condition). […] Average pixel intensity values were calculated by sampling images of different animals. […]

SMILES: CN(C)[C@@H]1C(O)=C(C(N)=O)C(=O)[C@@]2(O)C(O)=C3C(=O)c4c(O)cccc4[C@@](C)(O)[C@H]3C[C@@H]12 [TETRA, tetracycline]
- ROS generation and pumping dysfunction caused by cardiotoxic LC (C. elegans [1]; 2 nM 1033, 50 μM TETRA or 5 mM NAC with 100 μg/mL LC): capable of neutralizing
- effect on the pharyngeal pumping dysfunction caused by cardiotoxic LC (C. elegans [1]; 100 μg/mL H7-BJ with 50 μM TETRA or 5 mM NAC, pumping 20 h after plating): protective effect
- restoring pharangeal function after damage by H7-BJ (C. elegans [2]; then 20 μM TETRA or 0.5 nM 1033 alone): minimal effects
- restoring pharyngeal function after damage by H7-BJ (C. elegans [2]; then drug 30 min, 2 nM 1033 or 20 μM TETRA): ineffective
- activation (nuclear translocation) of DAF-16 induced by the cardiotoxic LC (DAF-16): counteracted
